The supplement of paper PMC8616043
Where “and” joins values, the source holds several entries; their conditions need not be identical. Identical values can stand only once. Counter-ions that a name gives are not always drawn. This is one part of the list. Single values are uncertain here, since repeats match poorly.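 PR50, a 50-repeat proline–arginine dipeptide protein from C9ORF72 (ALS/FTD), was expressed by transfection in U-2 OS human cells stably carrying a GFP sensor with import and classical export signals. Per-well nuclear-minus-cytoplasm GFP, normalized between in-plate DMSO (low) and PR-only (high), was scored versus other test wells; compounds well below zero were hits reversing PR.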

Each molecule was assayed on U-2 OS NCT-C biosensor cells expressing PR50 (assay: Z-score of normalised NCT-C biosensor translocation index in PR50-expressing cells; higher = more nuclear biosensor (more disrupted nuclear export)). Conditions: 3 µM; 24 h.

Q: With COc1ccc(-c2cc(=O)c3c(O)cc(O)cc3o2)cc1 [Acacetine] as the molecule, how does the Z-score read?
A: inactive: 0.374

Q: With COc1nc(C)nc(Cl)c1NC1=NCCN1 [Moxonidine hydrochloride] as the molecule, how does the Z-score read?
A: inactive: -0.439

Q: O=C(Nc1cc(C(F)(F)F)ccc1N1CCCCC1)c1ccncc1 was tested. Which Z-score did it give?
A: inactive: -0.852

Q: COc1cc2nc(N3CCN(C(=O)c4ccco4)CC3)nc(N)c2cc1OC [Prazosin hydrochloride] was tested. Which Z-score did it give?
A: inactive: 0.174

Q: For COc1cc2nc(N3CCN(C(=O)c4ccco4)CC3)nc(N)c2cc1OC [Prazosin·HCl], which Z-score is on record?
A: active: -2.41

Q: NCCS(=O)(=O)O [Taurine] was tested. Which Z-score did it give?
A: inactive: -0.128

Q: For CCCCS(=O)(=O)N[C@@H](Cc1ccc(OCCCCC2CCNCC2)cc1)C(=O)O [Tirofiban·HCl monohydrate], which Z-score is on record?
A: inactive: -0.581

Q: For CCCCS(=O)(=O)N[C@@H](Cc1ccc(OCCCCC2CCNCC2)cc1)C(=O)O [Tirofiban hydrochloride monohydrate], which Z-score is on record?
A: inactive: -1.32

Q: Which Z-score does the source give for N#CC(C#N)=C(N)/C(C#N)=C/c1ccc(O)cc1 [Tyrphostin AG 112] here?
A: inactive: -0.406

Q: CCN(CC)Cc1ccc2cc(COC(=O)Nc3ccc(C(=O)NO)cc3)ccc2c1 [Givinostat (ITF2357)] was tested. Which Z-score did it give?
A: inactive: -0.532

Q: For O=c1oc(Cl)c(Cl)c2ccccc12 [3,4-Dichloroisocoumarin], which Z-score is on record?
A: inactive: -0.516

Q: How did the Z-score turn out when NCCCCCCCCCCN [1,10-  Diaminodecane] was run?
A: inactive: 0.0339

Q: OC[C@H]1O[C@@H](Oc2ccc(O)cc2)[C@H](O)[C@@H](O)[C@@H]1O [Arbutin] was tested. Which Z-score did it give?
A: inactive: -0.47

Q: Which Z-score does the source give for O=C(c1ccc(C(=O)N2CCC(N3CCCC3)CC2)c(Nc2ccccc2)c1)N1CCC(N2CCCC2)CC1 here?
A: active: -2.5

Q: For Nc1ccc(S(=O)(=O)c2ccc(N)cc2)cc1 [Dapsone], which Z-score is on record?
A: inactive: -0.00477

Q: Which Z-score does the source give for O=Nc1ccc(O)c2ncccc12 here?
A: inactive: -1.54

Q: CN(C)CCc1c[nH]c2ccc(Cn3cncn3)cc12 [Rizatriptan benzoate salt] was tested. Which Z-score did it give?
A: inactive: -0.44

Q: CN(C)CCc1c[nH]c2ccc(Cn3cncn3)cc12 [Rizatriptan Benzoate] was tested. Which Z-score did it give?
A: inactive: -1.02

Q: For OCCN1CCN(CCCN2c3ccccc3Sc3ccc(Cl)cc32)CC1 [Perphenazine], which Z-score is on record?
A: inactive: -0.329

Q: How did the Z-score turn out when CCCC(=O)O[C@]1(C(=O)COC(C)=O)CC[C@H]2[C@@H]3C[C@H](F)C4=CC(=O)C=C[C@]4(C)[C@@]3(F)[C@@H](O)C[C@@]21C [Difluprednate] was run?
A: inactive: -0.175

Q: How did the Z-score turn out when CCC[C@H](N[C@@H](C)C(=O)N1[C@H](C(=O)O)C[C@@H]2CCCC[C@@H]21)C(=O)OCC [Perindopril Erbumine] was run?
A: inactive: -0.27

Q: With O=c1c(-c2ccc(O)cc2)coc2cc(O[C@@H]3O[C@H](CO)[C@@H](O)[C@H](O)[C@H]3O)cc(O)c12 [Genistin] as the molecule, how does the Z-score read?
A: inactive: 0.284

Q: N#Cc1c2nc3ccccc3nc2n2ccc(NC(=O)c3cccs3)cc12 was tested. Which Z-score did it give?
A: inactive: 2.86

Q: With O=C1c2ccccc2-n2c1nc1ccccc1c2=O [Tryptanthrin] as the molecule, how does the Z-score read?
A: inactive: -0.61

Q: Which Z-score does the source give for Clc1ccc(-c2csc(NN=C3CCCC3)n2)cc1 here?
A: active: -2.02

Q: CCN1CCN(C(=O)N[C@@H](C(=O)N[C@@H]2C(=O)N3[C@@H]2SC(C)(C)[C@@H]3C(=O)O)c2ccccc2)C(=O)C1=O [Piperacillin] was tested. Which Z-score did it give?
A: inactive: -0.453

Q: Which Z-score does the source give for CN1CCCC(n2nc(Cc3ccc(Cl)cc3)c3ccccc3c2=O)CC1 (centres undefined) [Azelastine·HCl] here?
A: inactive: -0.159

Q: CN(C)CCC[C@@]1(c2ccc(F)cc2)OCc2cc(C#N)ccc21 [Escitalopram] was tested. Which Z-score did it give?
A: inactive: 0.35

Q: How did the Z-score turn out when COc1ccc(C2(CNC(=O)c3ccc(NC(=O)c4ccco4)cc3)CCOCC2)cc1 was run?
A: inactive: -0.327

Q: With Cc1nc(N=Nc2ccc(C(=O)O)cc2)c(COP(=O)(O)O)c(C=O)c1O as the molecule, how does the Z-score read?
A: inactive: 0.015

Q: How did the Z-score turn out when C[C@H]1C[C@H]2[C@@H]3CCC4=CC(=O)C=C[C@]4(C)[C@@]3(Cl)[C@@H](O)C[C@]2(C)[C@@]1(O)C(=O)CO [Beclomethasone] was run?
A: inactive: -0.0652

Q: How did the Z-score turn out when Oc1ccc(O)cc1 [Hydroquinone] was run?
A: inactive: -0.33

Q: For COc1cc2nc(N3CCN(C(=O)C4CCCO4)CC3)nc(N)c2cc1OC (centres undefined) [Terazosin·HCl], which Z-score is on record?
A: inactive: 0.673

Q: CC1CCN=C(N)S1 (racemic) [(±)-AMT  hydrochloride] was tested. Which Z-score did it give?
A: inactive: 1.03

Q: Which Z-score does the source give for CC(C)(O)CC[C@@H](O)[C@](C)(O)[C@H]1CC[C@@]2(O)C3=CC(=O)[C@@H]4C[C@@H](O)[C@@H](O)C[C@]4(C)[C@H]3CC[C@]12C [β-Ecdysone] here?
A: inactive: -0.371

Q: O=C1c2c(O)cc(O)cc2O[C@H](c2ccc(O)c(O)c2)[C@H]1O [(+)-Taxifolin] was tested. Which Z-score did it give?
A: inactive: -0.107

Q: Which Z-score does the source give for O=C1c2ccccc2C(=O)c2c(NCCc3ccc(O)cc3)ccc(NCCc3ccc(O)cc3)c21 here?
A: inactive: -0.0094 and inactive: 0.176

Q: Which Z-score does the source give for Nc1ccn(C[C@@H](CO)OCP(=O)(O)O)c(=O)n1 [Cidofovir] here?
A: inactive: 0.388

Q: Which Z-score does the source give for CNCC[C@H](Oc1ccc(C(F)(F)F)cc1)c1ccccc1 [S-(+)-Fluoxetine hydrochloride] here?
A: inactive: -0.193

Q: CC(=O)OCC(=O)[C@@]1(O)CC[C@H]2[C@@H]3CCC4=CC(=O)CC[C@]4(C)[C@H]3C(=O)C[C@@]21C [Cortisone 21- acetate] was tested. Which Z-score did it give?
A: inactive: -0.165

Q: For CC(=O)OCC(=O)[C@@]1(O)CC[C@H]2[C@@H]3CCC4=CC(=O)CC[C@]4(C)[C@H]3C(=O)C[C@@]21C [Cortisone Acetate], which Z-score is on record?
A: inactive: -0.173

Q: How did the Z-score turn out when Cn1cc(C(=O)OCC2CCN(CCNS(C)(=O)=O)CC2)c2ccccc21 was run?
A: inactive: 0.142

Q: Which Z-score does the source give for O=c1c(O)c(-c2ccccc2O)oc2cc(O)cc(O)c12 [Datiscetin] here?
A: inactive: 0.198

Q: For CC1=C(/C=C/C(C)=C/C=C/C(C)=C/C(=O)Nc2ccc(O)cc2)C(C)(C)CCC1 [Retinoic acid p- hydroxyanilide], which Z-score is on record?
A: inactive: -0.302

Q: With CC(c1cc2ccccc2s1)N(O)C(N)=O (centres undefined) [Zileuton] as the molecule, how does the Z-score read?
A: inactive: 3.62

Q: How did the Z-score turn out when C[C@@H]1C(=O)O[C@H]2C[C@@]34[C@H]5C[C@@H](C(C)(C)C)[C@]36[C@@H](OC(=O)[C@@H]6O)O[C@@]4(C(=O)O5)[C@]21O [Ginkgolide A] was run?
A: inactive: -1.11

Q: CC(=O)Oc1cc(C(C)C)c(OCCN(C)C)cc1C [Moxisylyte hydrochloride] was tested. Which Z-score did it give?
A: inactive: -0.304

Q: With CC(C)OC(=O)CCC/C=C\C[C@@H]1[C@@H](CC[C@@H](O)CCc2ccccc2)[C@H](O)C[C@@H]1O [Latanoprost] as the molecule, how does the Z-score read?
A: inactive: 0.17

Q: How did the Z-score turn out when COc1cc(C)c(/C=C/C(C)=C/C=C/C(C)=C/C(=O)O)c(C)c1C [Acitretin] was run?
A: inactive: -0.193

Q: Which Z-score does the source give for C[n+]1cccc(C(=O)[O-])c1 [Trigonelline·HCl] here?
A: inactive: -0.302

Q: With O=c1[nH]c(=O)n([C@H]2C[C@H](O)[C@@H](CO)O2)cc1F [Floxuridine] as the molecule, how does the Z-score read?
A: inactive: 0.74

Q: For CNNCc1ccc(C(=O)NC(C)C)cc1 [Procarbazine·HCl], which Z-score is on record?
A: inactive: -0.301

Q: With NS(=O)(=O)c1cc2c(cc1Cl)NCNS2(=O)=O [Hydrochloro thiazide] as the molecule, how does the Z-score read?
A: inactive: 0.211

Q: For NS(=O)(=O)c1cc2c(cc1Cl)NCNS2(=O)=O [Hydrochlorothiazide], which Z-score is on record?
A: inactive: 1.09

Q: With COc1cc(/C=C/C(=O)O)ccc1O [Ferulic acid] as the molecule, how does the Z-score read?
A: inactive: 0.0854

Q: For CN(C)CCC=C1c2ccccc2C=Cc2ccccc21 [Cyclobenzaprine·HCl], which Z-score is on record?
A: inactive: 0.229

Q: O=C1c2cccc(O)c2C(=O)c2c(O)cc(CO)cc21 [Aloe-emodine] was tested. Which Z-score did it give?
A: inactive: 1.22

Q: How did the Z-score turn out when CN(C)CCc1c[nH]c2ccc(C[C@H]3COC(=O)N3)cc12 [Zolmitriptan] was run?
A: inactive: -0.364

Q: How did the Z-score turn out when O=C(O)C1=CCNCC1 [Isoguvacine hydrochloride] was run?
A: inactive: 0.0121

Q: With CNC(=C[N+](=O)[O-])NCCSCc1csc(CN(C)C)n1 [Nizatidine] as the molecule, how does the Z-score read?
A: inactive: -0.499

Q: With CCC1=C[C@@H]2CN(C1)Cc1c([nH]c3ccccc13)[C@@](C(=O)OC)(c1cc3c(cc1OC)N(C)[C@H]1[C@@](O)(C(=O)OC)[C@H](OC(C)=O)[C@]4(CC)C=CCN5CC[C@]31[C@@H]54)C2 [Vinorelbine] as the molecule, how does the Z-score read?
A: inactive: 1.67

Q: How did the Z-score turn out when CS(=O)(=O)Nc1ccc([N+](=O)[O-])cc1Oc1ccccc1 [Nimesulide] was run?
A: inactive: -0.546

Q: Which Z-score does the source give for CCn1cc(C(=O)O)c(=O)c2cc(F)c(N3CCNC(C)C3)c(F)c21 (centres undefined) [Lomefloxacin hydrochloride] here?
A: inactive: -0.381

Q: How did the Z-score turn out when NC(=O)c1cc[n+](CC2=C(C(=O)O)N3C(=O)[C@@H](NC(=O)C(c4ccccc4)S(=O)(=O)[O-])[C@H]3SC2)cc1 (some centres undefined) [Cefsulodin sodium salt hydrate] was run?
A: inactive: -0.495

Q: With C[C@]12C=CC(=O)C=C1CC[C@@H]1C2=CC[C@]2(C)[C@@H](C(=O)CN3CCN(c4cc(N5CCCC5)nc(N5CCCC5)n4)CC3)CC[C@@H]12 as the molecule, how does the Z-score read?
A: inactive: -0.576

Q: For C[C@]12C=CC(=O)C=C1CC[C@@H]1[C@@H]2C(=O)C[C@@]2(C)[C@H]1CC[C@]2(O)C(=O)CO [Prednisone], which Z-score is on record?
A: inactive: -0.0993

Q: Which Z-score does the source give for Cn1c(=O)c2[nH]c(-c3ccc(S(=O)(=O)O)cc3)nc2n(C)c1=O [8-(p-Sulfophenyl) theophylline] here?
A: inactive: -0.324

Q: C[C@@H]1O[C@@H]1P(=O)(O)O [Fosfomycin Calcium] was tested. Which Z-score did it give?
A: inactive: 0.839

Q: Which Z-score does the source give for C[C@@H]1O[C@@H]1P(=O)(O)O [Phosphomycin disodium salt] here?
A: inactive: 0.303
